Measurements reported in PubChem BioAssay AID504784 (Drosophila RNAi Screening Center, 2011)

- Purpose: 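Fly genes whose silencing alters how much lipid cells keep in droplets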 (primary screen)
- System: Drosophila Kc167 embryonic cells
- Reagents: long dsRNA against Drosophila genes, about 250 ng dsRNA per well
- Time to read-out: 4 days
- Treatment: cells fed 400 µM oleic acid bound to BSA
- Measurement: 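Microscope images give a droplet-to-nucleus area ratio, taken as log and converted to a screen-wide B-score; higher values mean greater lipid storage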
- Scale: droplet/nuclear area B-score: higher = more stored lipid (overstorage)
In all, the deposit lists about 17,000 reagents; below is a random part of those with a known target gene and a result. 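Each column is one replicate's B-score; the combined score over replicates was not deposited, so single values may mislead.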 Names joined by + are all predicted targets of the reagent. Further read-outs or replicates are left out here.

gene	DRSC id	droplet/nuclear area B-score, replicate 1	droplet/nuclear area B-score, replicate 2
CG32095	DRSC22615	-0.00241	0.0238
cerv (cervantes)	DRSC19681	0.918	-1.03
CG14400	DRSC02384	0.0131	0.872
hpRNA:CR18854 + IP3K1	DRSC02218	-0.0492	0.0643
Prps (Phosphoribosyl pyrophosphate synthetase)	DRSC08994	0.818	2.96
Prps (Phosphoribosyl pyrophosphate synthetase)	DRSC10707	-0.219	-3.91
Prps (Phosphoribosyl pyrophosphate synthetase)	DRSC10708	-0.699	-1.04
Spase25 (Spase 25-subunit)	DRSC19776	-2.01	-1.37
gwl (greatwall)	DRSC16305	1.18	-1.24
Atx-1 (Ataxin 1)	DRSC18365	-1.33	1.11
Mul1 (Mitochondrial E3 ubiquitin protein ligase 1)	DRSC08174	-2.25	2.48
Ttc30 (Tetratricopeptide repeat domain 30)	DRSC02818	-0.991	0.19
CG6310	DRSC10619	-0.202	1.07
Mipp2 (Multiple inositol polyphosphate phosphatase 2)	DRSC18682	0.0858	0.837
Smn (survival motor neuron)	DRSC10223	0.762	-0.398
CG14195	DRSC19550	-2.02	0.0533
lin-52	DRSC18106	0.175	0.494
CG12182	DRSC08142	-0.198	-3.51
Atg12 (Autophagy-related 12)	DRSC09803	2.15	1.59
CG10445	DRSC14247	-0.937	0.0679
Ir94g (Ionotropic receptor 94g)	DRSC15231	-0.536	-1.08
Gtpx	DRSC08221	-1.16	0.309
Gtpx	DRSC22117	-0.0261	0.703
Pect (Phosphoethanolamine cytidylyltransferase)	DRSC02867	0.307	0.125
Pect (Phosphoethanolamine cytidylyltransferase)	DRSC02868	0.0592	-0.776
Muc96D (Mucin 96D)	DRSC13709	3.21	-0.91
Muc96D (Mucin 96D)	DRSC21609	-0.662	0.116
Muc96D (Mucin 96D)	DRSC23213	0.162	-1.11
EndoB (Endophilin B)	DRSC07345	-0.501	0.71
dhd (deadhead)	DRSC18761	0.674	-1.94
St2 (Sulfotransferase 2)	DRSC15142	1.26	0.689
St2 (Sulfotransferase 2)	DRSC22624	-0.149	-0.115
Cpr67B (Cuticular protein 67B)	DRSC10373	-0.105	-1.82
CG11052	DRSC14288	-1.18	0.689
CG15725	DRSC19691	-0.328	0.821
Epg5 (ectopic P-granules autophagy protein 5)	DRSC14778	-0.05	0.976
Dhx15 (DEAH-box helicase 15)	DRSC06036	-3.37	-1.7
CG5327	DRSC06930	-1.92	-0.586
CG18281	DRSC11742	-0.00622	1.3
eIF4G2 (eukaryotic translation initiation factor 4G2)	DRSC14207	2.6	-0.0346
eIF4G2 (eukaryotic translation initiation factor 4G2)	DRSC21739	-0.0956	-1.82
CG4375	DRSC00653	0.972	-1.72
Wwox (WW domain containing oxidoreductase)	DRSC03030	0.396	0.901
Wwox (WW domain containing oxidoreductase)	DRSC22872	-0.478	-0.224
sick (sickie)	DRSC02090	0.0736	1.19
sick (sickie)	DRSC02301	-0.812	-0.795
sick (sickie)	DRSC02302	1.85	1.2
sick (sickie)	DRSC02303	0.769	1.65
sick (sickie)	DRSC02306	2.14	-0.134
CG2127	DRSC06821	-0.0186	0.568
CG30394	DRSC04074	-1.74	0.00213
CG30394	DRSC04260	0.0456	-2.55
Swt1 (Swt1 RNA endoribonuclease)	DRSC20028	0.602	-0.653
ms(3)76Ba (male sterile (3) 76Ba)	DRSC10091	-0.984	0.159
tzn (tenzing norgay)	DRSC11755	-4.03	-2.76
eIF3l (eukaryotic translation initiation factor 3 subunit l)	DRSC10530	1.12	0.328
PGRP-LD + Cralbp + Pmi	DRSC09743	-0.472	0.759
Sin1 (SAPK-interacting protein 1)	DRSC05965	0.886	0.465
Cln7	DRSC11005	-2.3	-0.539
CG10428	DRSC02054	-0.702	-0.259
ro (rough)	DRSC17046	-0.193	0.534
CG34107	DRSC14554	-0.0111	-0.239
CG8379	DRSC16414	-0.933	0.0573
Eig71Eh	DRSC11155	-0.58	-0.28
mamo (maternal gene required for meiosis)	DRSC19370	-1.57	-2.11
CG33322	DRSC03204	3.21	0.263
CG5478	DRSC15814	-0.537	0.0543
Scm (Sex comb on midleg)	DRSC16853	0.32	-0.774
Skeletor (retired record)	DRSC14905	0.217	-1.15
Skeletor (retired record)	DRSC14906	-0.167	
CG9286	DRSC16467	-2.86	4.41
Cht12 (Chitinase 12)	DRSC03844	-0.388	-0.197
swa (swallow)	DRSC18842	-0.444	0.303
CG15554	DRSC15092	0.0474	-0.948
CG8012	DRSC10951	1.35	-1.8
CG2926	DRSC12321	0.163	-1.37
CG8578	DRSC20114	-0.581	-0.21
lncRNA:CR32730 (long non-coding RNA:CR32730)	DRSC22957	-0.00952	2.65
CG33454	DRSC22914	1.98	-0.155
Ist1	DRSC09697	0.218	-3.35
CG7377	DRSC10830	-0.00168	0.456
Pak (p21-activated kinase)	DRSC12602	-0.0217	-0.0174
Pak (p21-activated kinase)	DRSC23302	-0.442	-1.62
